Results from PMC8139834.
These are yes or no findings as the source states them, for the method shown. In cells and extracts the contact can be indirect. Some binding calls cover weakened binding; strength is not graded here. For part of these data: Tags and fused reporters may be left off the sequences shown.

B1: Srebp2 (sterol regulatory element-binding protein 2) (protein, UniProt Q3U1N2 1-1130)
chain: MDESSELGVLETMETLTELGDELTLGDIDEMLQFVSNQVGEFPDLFSEQLCSSFPGGGSNGGSGNNSSGRGNNGGATDPAVQRSFSQVPLSTFSPSAASPQAPALQVKVSPTPPRATPVLQPRPQPQPQPPAQLQQQTVMITPTFSTAPQTRIIQQPLIYQNAATSFQVLQPQVQSLVTSPQVQPVTIQQQVQTVQAQRVLTQTANGTLQTLAPATVQTVAAPQVQQVPVLVQPQIIKTDSLVLTTLKTDGSPVMAAVQNPALTALTAPIQTAALQVPTLVGSNGTILTTMPVMMGQEKVPIKQVPGGVKQLDPPKEGERRTTHNIIEKRYRSSINDKIIELKDLVMGTDAKMHKSGVLRKAIDYIKYLQQVNHKLRQENMVLKLANQKNKLLKGIDLGSLVDSDVDLKIDDFNQNVLLMSPPASDSGSQAGFSPYSIDSEPGSPLLDDAKVKDEPDSPPVALGMVDRSRILLCVLTFLGLSFNPLTSLLQWGGAHNTDQHPYSGSGRSVLSLESGAGGWFDWMVPTLLLWLVNGVIVLSVFVKLLVHGEPVIRPHSRPSVTFWRHRKQADLDLAKGDFAAAAANLQTCLSVLGRALPTSRLDLACSLSWNVIRYSLQKLRLVRWLLKKVFQRWRATPATAAGFEDEAKSSARDAALAYHRLHQLHITGKLPAGSACSDVHMALCAVNLAECAEEKILPSTLIEIHLTAAMGLKTRCGGKLGFLASYFLNRAQSLCGPEHSTVPDSLRWLCHPLGQKFFMERSWSIKSAAKESLYCAQRSPADPIAQVHQAFCKNLLERAVESLVKPQAKKKAGDQEEESCEFSSALEYLKLLHSFVDSVGFVTSPFSSSSVLRSALGPDVICRWWTSAVTMAISWLQGDDAAVRSRFTEVERVPKALEVTESPLVKAVFYTCRAMHASLSGKADGQQNSFCHCERASGHLWSSLNVSGTTSDPSLNHVIQLFTCDLLLSLRTALWQKQASASQLLGETYHASGTELAGFQRDLGSLRRLAHSFRPAYRKVFLHEATVRLMAGASPTRTHQLLEHSLRRRPTQNTKHGEVDTWPGQRERATAILLACRHLPLSFLSSPGQRAVLLAEAARTLEKVGDRRSCSDCQQMIVKLGGGTAIAAS
B2: Qki-5 (protein, UniProt Q9QYS9-1 1-341)
chain: MVGEMETKEKPKPTPDYLMQLMNDKKLMSSLPNFCGIFNHLERLLDEEISRVRKDMYNDTLNGSTEKRSAELPDAVGPIVQLQEKLYVPVKEYPDFNFVGRILGPRGLTAKQLEAETGCKIMVRGKGSMRDKKKEEQNRGKPNWEHLNEDLHVLITVEDAQNRAEIKLKRAVEEVKKLLVPAAEGEDSLKKMQLMELAILNGTYRDANIKSPALAFSLAATAQAAPRIITGPAPVLPPAALRTPTPAGPTIMPLIRQIQTAVMPNGTPHPTAAIVPPGPEAGLIYTPYEYPYTLAPATSILEYPIEPSGVLGAVATKVRRHDMRVHPYQRIVTADRAATGN

Columns and labels:
[1] = target: T1, Qki-5 (mouse (endogenous in oligodendrocytes differentiated from mouse NSCs)) (UniProt Q9QYS9); assay: co-IP; endogenous proteins; differentiated oligodendrocytes cross-linked with 1% formaldehyde, lysed in NP-40 buffer (50 mM Tris-HCl pH 7.4, 150 mM NaCl, 5 mM EDTA, 0.05% NP-40), sonicated; anti-Qki-5 or anti-Srebp2 antibody overnight at 4°C, protein G magnetic beads; immunoblot; normal rabbit IgG as control
T1 sequence: B2 chain

[2] = target: T2, 3X Flag-Srebp2 (UniProt Q12772); assay: co-IP; differentiated oligodendrocytes with ectopic Flag-Srebp2, cross-linked with 1% formaldehyde, NP-40 buffer; anti-Flag M2 magnetic beads for 4 hr; immunoblot of Qki-5; denatured (boiled) anti-FLAG beads as control
T2 sequence: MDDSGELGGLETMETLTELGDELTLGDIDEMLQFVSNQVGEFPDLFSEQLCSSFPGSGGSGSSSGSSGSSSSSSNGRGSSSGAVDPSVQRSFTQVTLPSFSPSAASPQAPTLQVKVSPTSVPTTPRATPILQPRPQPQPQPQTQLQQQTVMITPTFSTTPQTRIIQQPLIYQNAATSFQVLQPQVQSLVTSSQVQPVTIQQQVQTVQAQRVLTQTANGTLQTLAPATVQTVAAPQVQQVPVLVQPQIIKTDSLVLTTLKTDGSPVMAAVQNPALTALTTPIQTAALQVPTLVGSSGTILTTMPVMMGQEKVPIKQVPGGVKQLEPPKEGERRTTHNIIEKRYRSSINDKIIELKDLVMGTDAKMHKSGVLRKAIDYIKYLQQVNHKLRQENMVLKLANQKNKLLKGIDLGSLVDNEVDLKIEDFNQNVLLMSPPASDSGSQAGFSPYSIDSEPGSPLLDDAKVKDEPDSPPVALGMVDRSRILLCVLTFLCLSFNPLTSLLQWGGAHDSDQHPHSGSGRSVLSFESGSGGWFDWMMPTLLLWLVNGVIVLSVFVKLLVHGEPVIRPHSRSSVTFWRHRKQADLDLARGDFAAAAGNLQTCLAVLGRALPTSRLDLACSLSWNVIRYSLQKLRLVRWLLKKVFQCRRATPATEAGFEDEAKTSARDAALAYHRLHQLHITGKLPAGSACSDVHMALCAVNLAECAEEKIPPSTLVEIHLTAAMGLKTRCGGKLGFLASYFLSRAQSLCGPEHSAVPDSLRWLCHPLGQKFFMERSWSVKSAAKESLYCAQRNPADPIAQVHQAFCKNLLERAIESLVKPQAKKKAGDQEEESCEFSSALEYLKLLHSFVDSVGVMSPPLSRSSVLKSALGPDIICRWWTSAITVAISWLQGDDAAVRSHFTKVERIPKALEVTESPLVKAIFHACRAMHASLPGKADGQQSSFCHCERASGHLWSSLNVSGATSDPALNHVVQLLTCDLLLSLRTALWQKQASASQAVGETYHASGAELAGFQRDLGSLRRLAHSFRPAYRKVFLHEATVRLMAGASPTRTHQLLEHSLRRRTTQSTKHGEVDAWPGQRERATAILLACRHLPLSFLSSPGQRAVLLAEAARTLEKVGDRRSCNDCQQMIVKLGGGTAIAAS

[3] = target: T3, Srebp2 (sterol regulatory element-binding protein 2) (mouse (endogenous in oligodendrocytes differentiated from mouse NSCs)) (UniProt Q3U1N2); assay: co-IP; endogenous proteins; differentiated oligodendrocytes cross-linked with 1% formaldehyde, lysed in NP-40 buffer (50 mM Tris-HCl pH 7.4, 150 mM NaCl, 5 mM EDTA, 0.05% NP-40), sonicated; anti-Qki-5 or anti-Srebp2 antibody overnight at 4°C, protein G magnetic beads; immunoblot; normal rabbit IgG as control
T3 sequence: B1 chain

| Binder | binding [1] | binding [2] | binding [3] |
| --- | --- | --- | --- |
| B1 | binds | – | – |
| B2 | – | binds | binds |
